Drawing on article PMC7862700, this text covers binding signal for 39 sequences.

By UniProt entry, the sequences of proteins in these tests, tags left out. Where a name states a change or a piece, a line headed by the entry shows the natural chain unless it says otherwise.
UniProt O43186: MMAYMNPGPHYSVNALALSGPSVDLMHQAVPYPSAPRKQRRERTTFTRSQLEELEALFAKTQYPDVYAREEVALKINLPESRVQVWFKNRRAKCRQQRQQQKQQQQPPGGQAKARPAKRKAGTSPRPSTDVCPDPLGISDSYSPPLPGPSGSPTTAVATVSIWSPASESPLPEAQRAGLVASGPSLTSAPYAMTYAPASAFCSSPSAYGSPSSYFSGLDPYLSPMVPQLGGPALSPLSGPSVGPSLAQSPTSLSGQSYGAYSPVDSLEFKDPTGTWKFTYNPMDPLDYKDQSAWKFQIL

This is a selection; strong and weak results do not stand in their true shares. At the low end of the ranking, values are background and their order means little.

The target of the first assay is T1, FEV (UniProt Q99581).
T1 sequence: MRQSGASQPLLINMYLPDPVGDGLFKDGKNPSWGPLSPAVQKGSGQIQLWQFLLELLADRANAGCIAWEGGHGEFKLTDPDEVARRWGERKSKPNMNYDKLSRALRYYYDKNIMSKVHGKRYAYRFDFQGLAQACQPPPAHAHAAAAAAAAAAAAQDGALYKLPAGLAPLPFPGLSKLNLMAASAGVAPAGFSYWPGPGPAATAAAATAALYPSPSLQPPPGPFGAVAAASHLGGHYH
The assay can be described thus: DAPPL (digital affinity profiling via proximity ligation, sequencing). Particulars: 10 mM Tris-HCl pH 7.5, 50 mM NaCl, 1 mM DTT, 4% glycerol, room temperature, 30 min; GST-TFs on glutathione beads, 16-mer random dsDNA library, 0.1% …; high values mean tight binding; double strand, one strand shown; scale: fold enrichment (6-mer frequency, TF over GST control).
Regarding CGGTTG, the binding signal was found to be 0.83.

As to GAGCGA, the binding signal is 0.645.

Sequence AGACAC registered a binding signal of 0.755.

Sequence AGGGGA gave a binding signal of 0.59.

In turn, GACGCG gave a binding signal of 0.596.

As to AAGGCG, the binding signal was 0.638.

AGGGGC showed a binding signal of 0.797.

Turning to AAAGGA, the binding signal was found to be 0.884.

In turn, CAGCTG registered a binding signal of 0.845.

Sequence GGATTG displayed a binding signal of 0.741.

Sequence CGTGGC registered a binding signal of 0.9.

For CGGGAG, the binding signal came to 0.206.

With ATGAGT, the binding signal is 0.617.

Sequence AGGGCG gave a binding signal of 0.584.

GAACGC came in with a binding signal of 0.726.

As to TGTCGG, the binding signal turned out to be 0.334.

Take GACAAT: the binding signal is 0.919.

For ACACAG, the binding signal was determined as 0.932.

Regarding TCGTGC, the binding signal came to 0.791.

Sequence TAGAGC gave a binding signal of 0.767.

As for GAACGA, the binding signal turned out to be 0.743.

GTCTGA had a binding signal of 0.812.

GGGTCC gave a binding signal of 0.797.

Take GAGTCT: the binding signal worked out at 0.363.

In turn, CCGAGA showed a binding signal of 0.629.

In turn, GGGGAG showed a binding signal of 0.379.

For AGCCAA, the binding signal is 0.822.

AGAGGA showed a binding signal of 0.57.

The sequence GGCGTA yielded a binding signal of 0.615.

Sequence GGCGCC had a binding signal of 0.68.

For CAGTTA, the binding signal is 0.776.

Regarding AAGGAC, the binding signal turned out to be 0.892.

As to CGGCCA, the binding signal is 0.797.

Sequence GGACTG yielded a binding signal of 0.724.

Take ACCGAG: the binding signal was 0.78.

AGAGTT returned a binding signal of 0.73.

CGGTCA: the binding signal turned out to be 0.852.

In turn, CCGGGA displayed a binding signal of 0.456.

Take GGGCCC: the binding signal stood at 0.825.

The target of another assay is CRX (UniProt O43186). The description is as above. Particulars: 10 mM Tris-HCl pH 7.5, 50 mM NaCl, 1 mM DTT, 4% glycerol, room temperature, 30 min; GST-TFs on glutathione beads, 16-mer random dsDNA library, 0.1% …; high values mean tight binding; double strand, one strand shown; scale: fold enrichment (6-mer frequency, TF over GST control).
In turn, CGGTTG registered a binding signal of 0.5.

In turn, GAGCGA gave a binding signal of 0.548.

Take AGACAC: the binding signal came to 0.657.

Sequence AGGGGA yielded a binding signal of 0.596.

In turn, GACGCG yielded a binding signal of 0.444.

AAGGCG: the binding signal amounted to 0.687.

For AGGGGC, the binding signal was 0.721.

With AAAGGA, the binding signal is 0.979.

Consider CAGCTG, for which the binding signal was 0.746.

As to GGATTG, the binding signal came to 1.12.

Consider CGTGGC, for which the binding signal is 0.715.

Sequence CGGGAG returned a binding signal of 0.163.

ATGAGT returned a binding signal of 0.662.

AGGGCG displayed a binding signal of 0.451.

Consider GAACGC, for which the binding signal is 0.585.

TGTCGG: the binding signal was 0.271.

In the case of GACAAT, the binding signal was found to be 0.839.

In turn, ACACAG registered a binding signal of 0.732.

With TCGTGC, the binding signal was determined as 0.639.

TAGAGC showed a binding signal of 0.889.

For the sequence GAACGA, the binding signal was 0.683.

GTCTGA registered a binding signal of 0.671.

On to GGGTCC, for which the binding signal was found to be 0.554.

The sequence GAGTCT returned a binding signal of 0.393.

Take CCGAGA: the binding signal stood at 0.635.

GGGGAG registered a binding signal of 0.307.

AGCCAA came in with a binding signal of 0.876.

For the sequence AGAGGA, the binding signal came to 0.642.

In turn, GGCGTA showed a binding signal of 0.592.

The sequence GGCGCC yielded a binding signal of 0.484.

In turn, CAGTTA returned a binding signal of 0.732.

In turn, AAGGAC displayed a binding signal of 0.727.

Sequence CGGCCA displayed a binding signal of 0.591.

GGACTG: the binding signal is 0.534.

Consider ACCGAG, for which the binding signal amounted to 0.703.

AGAGTT displayed a binding signal of 0.733.

CGGTCA came in with a binding signal of 0.542.

CCGGGA came in with a binding signal of 0.324.

Turning to GGGCCC, the binding signal was 0.557.

For another assay, the target named is T2, ELF5 (UniProt Q9UKW6-2).
T2 sequence: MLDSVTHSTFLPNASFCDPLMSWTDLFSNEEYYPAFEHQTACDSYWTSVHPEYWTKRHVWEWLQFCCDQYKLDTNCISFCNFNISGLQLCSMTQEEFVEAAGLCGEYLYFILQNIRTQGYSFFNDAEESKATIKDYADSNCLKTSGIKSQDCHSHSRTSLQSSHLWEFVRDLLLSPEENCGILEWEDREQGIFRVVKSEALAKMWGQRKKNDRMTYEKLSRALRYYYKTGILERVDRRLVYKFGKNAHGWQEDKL
Described as above. Particulars: 10 mM Tris-HCl pH 7.5, 50 mM NaCl, 1 mM DTT, 4% glycerol, room temperature, 30 min; GST-TFs on glutathione beads, 16-mer random dsDNA library, 0.1% …; high values mean tight binding; double strand, one strand shown; scale: fold enrichment (6-mer frequency, TF over GST control).
As to CGGTTG, the binding signal turned out to be 0.799.

GAGCGA yielded a binding signal of 0.585.

AGACAC: the binding signal worked out at 0.782.

AGGGGA came in with a binding signal of 0.624.

In the case of GACGCG, the binding signal came to 0.6.

For AAGGCG, the binding signal was determined as 0.679.

Regarding AGGGGC, the binding signal was 0.724.

For AAAGGA, the binding signal was found to be 0.98.

For CAGCTG, the binding signal turned out to be 0.753.

In turn, GGATTG came in with a binding signal of 0.836.

Take CGTGGC: the binding signal is 0.848.

Sequence CGGGAG returned a binding signal of 0.193.

In the case of ATGAGT, the binding signal amounted to 0.678.

As to AGGGCG, the binding signal was 0.557.

Take GAACGC: the binding signal stood at 0.69.

Sequence TGTCGG came in with a binding signal of 0.36.

The sequence GACAAT displayed a binding signal of 0.954.

Turning to ACACAG, the binding signal came out at 0.866.

On to TCGTGC, for which the binding signal stood at 0.711.

As for TAGAGC, the binding signal came to 0.702.

The sequence GAACGA returned a binding signal of 0.744.

On to GTCTGA, for which the binding signal was 0.756.

GGGTCC showed a binding signal of 0.785.

Sequence GAGTCT returned a binding signal of 0.368.

For CCGAGA, the binding signal is 0.602.

The sequence GGGGAG yielded a binding signal of 0.385.

As to AGCCAA, the binding signal turned out to be 0.874.

For the sequence AGAGGA, the binding signal was determined as 0.748.

GGCGTA: the binding signal was determined as 0.635.

GGCGCC: the binding signal was 0.654.

Sequence CAGTTA registered a binding signal of 0.717.

With AAGGAC, the binding signal was 0.932.

CGGCCA yielded a binding signal of 0.772.

GGACTG gave a binding signal of 0.668.

The sequence ACCGAG came in with a binding signal of 0.745.

In the case of AGAGTT, the binding signal was found to be 0.825.

CGGTCA returned a binding signal of 0.753.

Regarding CCGGGA, the binding signal was found to be 0.729.

GGGCCC came in with a binding signal of 0.696.
